# Measurements as given in the supplement of paper PMC8728848.
# The other results are listed elsewhere or left out.
# B1: GST Gap3 (Streptococcus parasanguinis) (protein)
# chain: MTKQLISEIYWNEIRKGENYLYGSQIKFQEDLVNFYNPQLASGKPIVTFKSRTNYQGDRHSPDLPILIQGNRYLLEYQIDAVPANSFFLQLDFFNRQAEQIESIVLRNSGESFIFPKDTFTYTLTLMSAGCQSVTYQKFMIYDINDEEKKNHIVENRYLRELLPKDLDLVKNLIEYI
# What was measured:
# Test in all cases: glycan array binding signal (z-score within array); higher = stronger binding
# Conditions in all cases: glycan notation: IUPAC condensed, linker removed
# [1] = target: Neu5Ac(a2-8)Neu5Ac(a2-3)Gal(b1-4)Glc
# In short: (§1)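 Columns mapping to the same glycan were averaged after glycan names were converted to IUPAC-condensed notation. The data come from 3228 arrays in the Consortium for Functional Glycomics database, limited to those with an available protein sequence. Binding is reported as a within-array Z-score averaged across arrays of one protein sequence and across linkers.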
# [2] = target: Neu5Ac(a2-8)Neu5Ac(a2-3)Gal(b1-4)GlcNAc
# In short: as §1
# [3] = target: Neu5Ac(a2-8)Neu5Ac(a2-3)[Gal(b1-3)GalNAc(b1-4)]Gal(b1-4)Glc
# In short: as §1
# [4] = target: Neu5Ac(a2-8)Neu5Ac(a2-3)[GalNAc(b1-4)]Gal(b1-4)Glc
# In short: as §1
# [5] = target: Neu5Ac(a2-8)Neu5Ac(a2-8)Neu5Ac
# In short: as §1
# [6] = target: Neu5Ac(a2-8)Neu5Ac(a2-8)Neu5Ac(a2-3)Gal(b1-4)Glc
# In short: as §1
# [7] = target: Neu5Ac(a2-8)Neu5Ac(a2-8)Neu5Ac(a2-3)[Gal(b1-3)GalNAc(b1-4)]Gal(b1-4)Glc
# In short: as §1
# [8] = target: Neu5Ac(a2-8)Neu5Ac(a2-8)Neu5Ac(a2-3)[GalNAc(b1-4)]Gal(b1-4)Glc
# In short: as §1
# [9] = target: Neu5Ac(a2-8)Neu5Ac(a2-8)Neu5Ac(a2-8)Neu5Ac(a2-3)[GalNAc(b1-4)]Gal(b1-4)Glc
# In short: as §1
# [10] = target: Neu5Ac(a2-8)Neu5Gc(a2-3)Gal(b1-4)GlcNAc
# In short: as §1
# [11] = target: Neu5Ac(b2-6)Gal(b1-4)GlcNAc
# In short: as §1
# [12] = target: Neu5Ac(b2-6)GalNAc
# In short: as §1
# [13] = target: Neu5Ac9Ac(a2-3)Gal(b1-3)GlcNAc
# In short: as §1
# [14] = target: Neu5Ac9Ac(a2-3)Gal(b1-4)GlcNAc
# In short: as §1
# [15] = target: Neu5Ac9Ac(a2-6)Gal(b1-4)GlcNAc
# In short: as §1
# [16] = target: Neu5Gc(a2-3)Gal(b1-3)GlcNAc
# In short: as §1
# [17] = target: Neu5Gc(a2-3)Gal(b1-3)[Fuc(a1-4)]GlcNAc
# In short: as §1
# [18] = target: Neu5Gc(a2-3)Gal(b1-4)Glc
# In short: as §1
# [19] = target: Neu5Gc(a2-3)Gal(b1-4)GlcNAc
# In short: as §1
# [20] = target: Neu5Gc(a2-3)Gal(b1-4)GlcNAc(b1-3)Gal(b1-4)GlcNAc(b1-2)Man(a1-3)[Neu5Gc(a2-3)Gal(b1-4)GlcNAc(b1-3)Gal(b1-4)GlcNAc(b1-2)Man(a1-6)]Man(b1-4)GlcNAc(b1-4)GlcNAc
# In short: as §1
# [21] = target: Neu5Gc(a2-3)Gal(b1-4)[Fuc(a1-3)]GlcNAc
# In short: as §1
# [22] = target: Neu5Gc(a2-6)Gal(b1-4)GlcNAc
# In short: as §1
# [23] = target: Neu5Gc(a2-6)GalNAc
# In short: as §1
# [24] = target: Neu5Gc(a2-8)Neu5Ac(a2-3)Gal(b1-4)GlcNAc
# In short: as §1
# [25] = target: Neu5Gc(a2-8)Neu5Gc(a2-3)Gal(b1-4)GlcNAc
# In short: as §1
# [26] = target: Neu5Gc(a2-8)Neu5Gc(a2-3)Gal(b1-4)GlcNAc(b1-3)Gal(b1-4)GlcNAc
# In short: as §1
# [27] = target: Neu5Gc(a2-8)Neu5Gc(a2-6)Gal(b1-4)GlcNAc
# In short: as §1
# [28] = target: Neu5Gc(b2-6)Gal(b1-4)GlcNAc
# In short: as §1
binder,measurement,setting,value
B1,glycan array binding signal (z-score),[1],-0.318
same,glycan array binding signal (z-score),[2],-0.321
same,glycan array binding signal (z-score),[3],0.348
same,glycan array binding signal (z-score),[4],0.096
same,glycan array binding signal (z-score),[5],0.585
same,glycan array binding signal (z-score),[6],0.221
same,glycan array binding signal (z-score),[7],-0.597
same,glycan array binding signal (z-score),[8],-0.357
same,glycan array binding signal (z-score),[9],0.791
same,glycan array binding signal (z-score),[10],-0.586
same,glycan array binding signal (z-score),[11],-0.516
same,glycan array binding signal (z-score),[12],-0.391
same,glycan array binding signal (z-score),[13],-0.579
same,glycan array binding signal (z-score),[14],-0.631
same,glycan array binding signal (z-score),[15],-0.31
same,glycan array binding signal (z-score),[16],-0.403
same,glycan array binding signal (z-score),[17],-0.364
same,glycan array binding signal (z-score),[18],-0.537
same,glycan array binding signal (z-score),[19],-0.209
same,glycan array binding signal (z-score),[20],-0.268
same,glycan array binding signal (z-score),[21],-0.183
same,glycan array binding signal (z-score),[22],-0.236
same,glycan array binding signal (z-score),[23],-0.529
same,glycan array binding signal (z-score),[24],-0.62
same,glycan array binding signal (z-score),[25],-0.359
same,glycan array binding signal (z-score),[26],-0.362
same,glycan array binding signal (z-score),[27],-0.267
same,glycan array binding signal (z-score),[28],0.409

# Shown with tabs: part of the list above
binder	measurement	setting	value
B1	glycan array binding signal (z-score)	[16]	-0.403
same	glycan array binding signal (z-score)	[17]	-0.364
